From article doi:10.1101/2024.01.30.577955
No constants are given. Whether binding was seen depends on the method and setting. Binding calls can cover weak binding; strength is not graded here.

The chains behind the UniProt entries cited, without tags or fusion partners. Where a name states a change or a piece, a line headed by the entry shows the natural chain unless it says otherwise.
UniProt Q6P9B9: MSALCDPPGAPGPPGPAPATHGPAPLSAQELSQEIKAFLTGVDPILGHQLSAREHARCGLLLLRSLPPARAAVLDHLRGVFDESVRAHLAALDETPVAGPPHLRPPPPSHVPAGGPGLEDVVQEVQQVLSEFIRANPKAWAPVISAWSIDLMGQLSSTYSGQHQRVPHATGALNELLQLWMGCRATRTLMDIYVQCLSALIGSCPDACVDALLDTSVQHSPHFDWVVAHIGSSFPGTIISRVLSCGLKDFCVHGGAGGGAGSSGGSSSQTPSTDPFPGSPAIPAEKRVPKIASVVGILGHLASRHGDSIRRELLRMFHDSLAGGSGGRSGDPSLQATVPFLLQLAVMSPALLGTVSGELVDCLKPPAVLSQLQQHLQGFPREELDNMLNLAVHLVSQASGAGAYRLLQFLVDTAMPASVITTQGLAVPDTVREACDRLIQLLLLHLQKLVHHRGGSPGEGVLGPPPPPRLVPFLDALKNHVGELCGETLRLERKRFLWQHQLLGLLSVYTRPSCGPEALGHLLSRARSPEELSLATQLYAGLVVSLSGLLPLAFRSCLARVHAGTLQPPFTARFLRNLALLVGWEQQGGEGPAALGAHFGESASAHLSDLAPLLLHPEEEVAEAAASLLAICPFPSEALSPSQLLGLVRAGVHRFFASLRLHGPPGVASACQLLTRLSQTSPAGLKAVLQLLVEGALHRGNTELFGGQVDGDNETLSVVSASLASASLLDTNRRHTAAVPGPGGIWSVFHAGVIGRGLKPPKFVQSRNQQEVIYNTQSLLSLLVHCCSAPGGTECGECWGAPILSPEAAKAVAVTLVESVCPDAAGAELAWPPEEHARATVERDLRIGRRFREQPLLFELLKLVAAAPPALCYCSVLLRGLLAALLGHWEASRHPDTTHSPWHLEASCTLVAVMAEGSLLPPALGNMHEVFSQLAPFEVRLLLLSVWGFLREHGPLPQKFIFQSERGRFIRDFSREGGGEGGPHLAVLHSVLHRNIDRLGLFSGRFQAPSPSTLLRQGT
UniProt Q96N11: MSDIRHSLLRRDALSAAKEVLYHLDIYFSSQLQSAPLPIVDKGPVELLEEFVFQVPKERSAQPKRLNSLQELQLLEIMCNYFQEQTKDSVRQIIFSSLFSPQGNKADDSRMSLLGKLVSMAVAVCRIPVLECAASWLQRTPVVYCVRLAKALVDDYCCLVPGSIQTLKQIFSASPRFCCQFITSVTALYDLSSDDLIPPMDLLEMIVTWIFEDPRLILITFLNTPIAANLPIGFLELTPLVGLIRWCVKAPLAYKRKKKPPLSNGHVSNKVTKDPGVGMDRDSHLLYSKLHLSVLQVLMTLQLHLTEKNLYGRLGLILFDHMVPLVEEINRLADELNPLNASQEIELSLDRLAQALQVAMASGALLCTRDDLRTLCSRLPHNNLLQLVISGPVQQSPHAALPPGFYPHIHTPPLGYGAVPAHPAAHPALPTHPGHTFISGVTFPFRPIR
UniProt Q75QN2: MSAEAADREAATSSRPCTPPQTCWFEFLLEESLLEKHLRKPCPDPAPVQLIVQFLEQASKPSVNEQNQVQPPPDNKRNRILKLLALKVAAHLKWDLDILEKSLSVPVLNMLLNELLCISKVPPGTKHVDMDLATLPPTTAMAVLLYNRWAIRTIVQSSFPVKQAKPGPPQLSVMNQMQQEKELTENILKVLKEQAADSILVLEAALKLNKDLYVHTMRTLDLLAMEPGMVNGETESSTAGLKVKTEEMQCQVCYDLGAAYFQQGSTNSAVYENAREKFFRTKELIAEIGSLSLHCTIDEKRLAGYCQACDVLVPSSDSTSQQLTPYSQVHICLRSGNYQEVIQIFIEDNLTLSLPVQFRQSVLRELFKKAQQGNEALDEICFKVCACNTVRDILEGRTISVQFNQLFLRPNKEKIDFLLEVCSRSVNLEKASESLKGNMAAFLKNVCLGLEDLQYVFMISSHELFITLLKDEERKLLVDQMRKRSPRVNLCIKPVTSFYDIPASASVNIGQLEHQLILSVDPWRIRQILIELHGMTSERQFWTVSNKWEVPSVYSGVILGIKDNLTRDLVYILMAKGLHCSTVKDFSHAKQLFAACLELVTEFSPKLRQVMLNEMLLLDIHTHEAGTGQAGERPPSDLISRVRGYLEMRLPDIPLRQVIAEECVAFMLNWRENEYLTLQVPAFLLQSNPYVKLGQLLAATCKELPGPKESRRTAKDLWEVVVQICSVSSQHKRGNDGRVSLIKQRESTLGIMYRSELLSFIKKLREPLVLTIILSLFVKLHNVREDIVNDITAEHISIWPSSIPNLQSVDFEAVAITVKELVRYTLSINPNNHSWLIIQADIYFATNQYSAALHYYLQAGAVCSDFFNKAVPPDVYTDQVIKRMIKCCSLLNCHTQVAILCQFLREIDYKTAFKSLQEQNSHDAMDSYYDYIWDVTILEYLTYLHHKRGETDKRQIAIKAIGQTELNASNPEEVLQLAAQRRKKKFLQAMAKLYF

Molecular target: INTS5 (UniProt Q6P9B9)
Test: cryo-EM structure

| binding | Substance |
| --- | --- |
| binds | INTS15 (from UniProt Q96N11 1-449) |
| binds | INTS8 (from UniProt Q75QN2 1-995) |
